For three substances, binding results are on record in paper doi:10.1101/2023.11.29.568318.

Chains of the proteins cited; added tags and fusions are not shown. Residues count along the entry.
UniProt P05067, residues 672-713: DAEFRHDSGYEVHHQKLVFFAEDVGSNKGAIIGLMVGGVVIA
UniProt P51910, residues 21-189: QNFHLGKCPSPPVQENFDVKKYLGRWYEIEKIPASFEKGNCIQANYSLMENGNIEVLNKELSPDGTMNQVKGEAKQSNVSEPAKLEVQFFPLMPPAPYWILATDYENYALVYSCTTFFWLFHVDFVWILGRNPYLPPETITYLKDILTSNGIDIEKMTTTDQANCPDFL
UniProt Q8R066, residues 17-326: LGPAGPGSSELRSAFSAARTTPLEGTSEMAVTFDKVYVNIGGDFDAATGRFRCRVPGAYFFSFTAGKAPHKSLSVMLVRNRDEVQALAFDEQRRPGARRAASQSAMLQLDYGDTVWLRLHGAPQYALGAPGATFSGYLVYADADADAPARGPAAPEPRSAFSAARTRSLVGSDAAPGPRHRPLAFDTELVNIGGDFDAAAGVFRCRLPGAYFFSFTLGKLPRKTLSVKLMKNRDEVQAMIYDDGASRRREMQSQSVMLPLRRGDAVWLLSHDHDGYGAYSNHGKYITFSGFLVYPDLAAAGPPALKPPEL
UniProt Q9R118, residues 23-480: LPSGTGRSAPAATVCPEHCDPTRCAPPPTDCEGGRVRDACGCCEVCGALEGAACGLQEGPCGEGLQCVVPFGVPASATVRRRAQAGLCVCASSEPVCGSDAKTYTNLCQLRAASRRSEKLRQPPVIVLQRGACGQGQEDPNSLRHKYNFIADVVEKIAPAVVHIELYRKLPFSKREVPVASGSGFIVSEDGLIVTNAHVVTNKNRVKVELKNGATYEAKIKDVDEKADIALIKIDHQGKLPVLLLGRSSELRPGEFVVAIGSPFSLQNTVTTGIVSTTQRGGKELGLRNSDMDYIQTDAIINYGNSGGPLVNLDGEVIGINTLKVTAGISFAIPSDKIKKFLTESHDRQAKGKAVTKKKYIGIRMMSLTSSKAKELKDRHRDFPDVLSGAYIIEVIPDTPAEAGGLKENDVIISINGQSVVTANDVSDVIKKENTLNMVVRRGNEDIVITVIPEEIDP

No constants are given. Whether binding was seen depends on the method and setting. Binding seen in cells or lysates may run through a third protein. Some binding calls cover weakened binding; strength is not graded here.

The assay addresses amyloid beta 1-42 fibrils (human) (UniProt P05067). Briefly: co-sedimentation.
As to ApoD (from UniProt P51910 21-189), the binding result is “binds”. For the substance C1qTnf4 (from UniProt Q8R066 17-326), the binding entry is on record as “binds”. For the substance Htra1 (from UniProt Q9R118 23-480), the binding result is listed as “binds”.
